Assay results reported in PubChem BioAssay AID1259415 (National Center for Advancing Translational Sciences (NCATS), 2018).
Screen size: about 410,000 compounds; about 18,000 (4.4%) were called active. Inconclusive means that the source gave no clear call. Such entries were picked first, then a sample of the others. No stated cut-off is given here; in the data, active means activity change below about -60%; inconclusive means no clear call, values can overlap the other calls; inactive means above about -39%.

Experiment: qHTS Assay for inhibitors of the human cytomegalovirus (HCMV)
Settings: HFF cells, HCMV-luciferase reporter, 72 h; at 57.5 µM; hits give low values
From the text: NCGC Assay Overview: Infection with human cytomegalovirus (HCMV) continues to pose significant threats for pregnant women and immunocompromised hosts. HCMV causes serious morbidity and mortality in transplant recipients, and congenital HCMV is the leading infectious cause of mental retardation and deafness in children. In the 1990s, the annual costs associated with the disease burden of congenital CMV were estimated at around $2 billion. A HCMV vaccine is not available yet and HCMV therapies result in intolerable side effects and emergence of drug resistant viruses. […] Towards this goal we have developed and characterized a luciferase HCMV reporter that was initially used in 96 well plates and then optimized to 1536-well plates for utilization in screening of the MLSMR collection, the NGCG diversity collection and the NCGC Pharmaceutical Collection of approved and investigational drugs.
NCGC Assay Protocol Summary:
This is a cell-based assay for HCMV inhibition in HFFs cells. The screening used 2 compound doses and the HCMV-luciferase at MOI of 1 PFU/cell. Cells were treated and infected with HCMV. At 72 h post infection cell lysates were collected and luciferase activity was determined using the Glomax-Multi + Detection System (Promega, Madison, WI). Data were normalized to the controls for basal activity (buffer only) and known HCMV inhibitors Salinmoycin.
1536-well assay protocol for the assay:
(1) Add 3 ul CMV/HFF cell culture. 1000 cells/well in DMEM nirmal media.
(2) Incubate 16 hr at 37C.
(3) Add 23 nl control compound, 10uM of Salinomycin.
(4) Add 23 nl compounds in DMSO solution.
(5) Add 3 ul CMV suspension. Final 1 puf/ul, Virus stock 2000pfu/ul
(6) Incubate 72 hrs at 37C.
(7) Add 4 ul OneGlo Luc Reagent.
(8) Incubate 5 min at room temperature.
On the % scale 0 is the no-effect control and ±100 the full control effect.

Compound	activity change, negative = inhibition
COc1ccc(C2/C(=C(\O)c3cccc(OC)c3)C(=O)C(=O)N2c2ccccn2)cc1 (configuration not stated)	active: -107%
COc1ccccc1NC(=O)CCn1cnc2onc(-c3ccc(F)cc3)c2c1=O	inactive: -0.311%
Cc1ccccc1-c1nc(CS(=O)(=O)CC(=O)NC2CC2)c(C)o1	inactive: 8.17%
COc1ccc(C2CC(c3ccccc3)=NN2C(=O)c2ccc(F)cc2)cc1 (configuration not stated)	inactive: -12.9%
COc1ccc(NC(=O)NC23CC4(C)CC(C)(CC(C)(C4)C2)C3)cc1OC	inconclusive: -49.2%
COc1ccccc1-c1oc2ccccc2c1C#CCO	inactive: -15.6%
OC1(c2ccccc2)CN(c2ccccc2)C2=[N+]1CCS2 (configuration not stated)	active: -62.2%
O=C(O)c1ccc(Nc2ncnc3c2cnn3Cc2ccccc2)cc1	inactive: 105%
Cc1cc(C(=O)CSc2n[nH]c(N)n2)c(C)n1-c1ccccc1	inactive: 74.7%
N#Cc1nccnc1S(=O)(=O)c1cccs1	active: -97%
CN(C)S(=O)(=O)c1ccc(C(=O)NCc2nnc(SCC(=O)N3CCCCCC3)o2)cc1	inconclusive: -40.6%
COc1ccc(N(CC(=O)Nc2cc(Cl)ccc2C)S(=O)(=O)c2c(C)noc2C)cc1	inconclusive: -53.3%
Cc1ccc(Oc2cnn(-c3ccccc3)c(=O)c2Br)cc1	inconclusive: -40.2%
CCOc1ccc(C(=O)Nc2ccc3oc(-c4ccc(Br)cc4)nc3c2)cc1	inconclusive: -51.6%
COC(=O)C1C(=O)N(S(=O)(=O)c2ccc([N+](=O)[O-])cc2)c2ccccc21 (configuration not stated)	inactive: 26.8%
CCCS(=O)(=O)NC(=O)C1(C)CCN(C(=O)COc2ccc(Cl)cc2Cl)C1 (configuration not stated)	inconclusive: -50.9%
Cc1cc(NCc2ccccn2)n2nc(C)c(-c3ccccc3)c2n1	active: -83.2%
CC(C)Sc1nc(N)nc(-c2cccs2)c1C#N	inactive: 54.8%
Cc1ccc2cc3c(NC(=O)c4cccnc4)nn(C)c3nc2c1	inconclusive: -42.1%
CCN(CC)S(=O)(=O)c1ccc(/C=C/C(=O)Nc2cccc(F)c2)cc1	inconclusive: -42.5%
CC1CCN(C(=O)C2CCN(c3ncnc4c3nc3n4CCCCC3)CC2)CC1	inconclusive: -48.3%
Nc1nnc2cc(Cl)ccc2n1	inactive: 41.8%

Compound	activity change, negative = inhibition
CCC(C)NC(=O)CCC(=O)OC1O[C@H]2OC3(C)CC[C@H]4[C@H](C)CCC(C1C)C24OO3 (some centres not stated)	active: -75.5%
COc1ccc2c(c1)C(CC(C)=O)N(c1ccc(-c3cccnc3)cc1)C(c1ccsc1)=C2 (configuration not stated)	inactive: -32.2%
COc1ccc(-n2nnnc2SCC(=O)Nc2ccc3c(c2)OCCO3)c(OC)c1	inconclusive: -43%
COCCN1C(=O)N[C@@H](c2cccc(C(F)(F)F)c2)[C@H](C(C)=O)[C@H]1C	inconclusive: -45.1%
O=C(CSC(=S)N1CCCCC1)c1ccccc1	inconclusive: -44.5%
O=C(c1ccco1)N1CCN(CC(O)COc2ccc3oc4ccccc4c3c2)CC1 (configuration not stated)	inconclusive: -59.4%
CN1C(=O)c2ccccc2Sc2ccc(NC(=O)NC3CC3)cc21	inconclusive: -46.3%
CCOC(=O)C1CCCN(C/C=C/c2ccccc2)C1 (configuration not stated)	inactive: 40.6%
COc1ccc(CCNC(=O)CC2SC(N)=NC2=O)cc1OC (configuration not stated)	inactive: -12.3%
O=C(N/N=C/C=C/c1ccccc1)c1cc2c(ccc3ccccc32)o1	inconclusive: -50%
Cc1ccccc1C(=O)c1cccn1CC(=O)NCCC1=CCCCC1	inconclusive: -42.7%
COC(=O)c1ccccc1NC(=S)N1CCC(N2CCCCC2)CC1	inconclusive: -40.9%
Cc1ccc(C(=O)Nc2ccc(Br)cc2)cc1S(=O)(=O)NCc1ccccc1	active: -69.1%
O=C1COc2ccc(OCc3ccc(F)cc3)cc21	inactive: 71.8%
O=C(NC(=S)Nc1sc2c(c1C(=O)O)CCCC2)c1ccccc1	inactive: 26.3%
C=CCn1c(O)c(N=NC(=S)Nc2ccccc2F)c2cc(S(=O)(=O)N3CCOCC3)ccc21	active: -70.1%
C=CCOn1c(=O)c(-c2ccccc2)[n+]([O-])c2ccccc21	inconclusive: -42.9%
CCCC(=O)N(Cc1cc(=O)[nH]c2ccccc12)c1ccc(OC)cc1	inactive: 68.6%
CCCCNC(=O)Cn1cnc2sc(C)c(S(=O)(=O)N3CCN(c4ccccc4OC)CC3)c2c1=O	inconclusive: -59%
CCOC(=O)[C@]12CCC=C1N(Cc1ccccc1)C(=O)[C@H](CC(=O)NCC1CCCCC1)C2	inactive: 8.33%
CCCCN1CCc2c(c3ccccc3n2Cc2ccccc2)C1	inconclusive: -54.2%
CNc1nc(=S)[nH]c2ccccc12	inconclusive: -41.2%

Compound	activity change, negative = inhibition
COC(=O)c1sc2ccccc2c1NC(=O)c1ccc(S(=O)(=O)N2CCCCC2C)cc1 (configuration not stated)	inconclusive: -50.9%
Cc1ccc(C(=O)N/C(=C/c2ccc(Cl)cc2)C(=O)NCC2CCCO2)cc1 (configuration not stated)	inconclusive: -47.9%
O=C(Nc1cccc(-c2cn3c(n2)SCC3)c1)c1ccc(Br)o1	inconclusive: -44.7%
O=C(Nc1ccccc1)Nc1nc(-c2ccccc2)cs1	inconclusive: -47.4%
COc1cc(OC)cc(C2=Cc3ccc(OC)cc3C(CC(C)=O)N2c2ccc(C#CCCO)cc2)c1 (configuration not stated)	inactive: -10.5%
Cc1cccc([C@@H]2[C@@H]3C(=O)N(Cc4ccccc4)C(=O)[C@@H]3[C@]3(C)C(=O)N(c4cccc(F)c4)C(=O)N23)c1	inactive: -13.8%
CC(NC(=O)c1ccco1)c1ccc(-n2ccnc2)cc1 (configuration not stated)	inactive: 5.49%
Cc1cc2cc(C)c(NCCNC(=O)c3ccccc3F)nc2cc1C	inconclusive: -48.4%
CCCCNC(=O)CC1N=C2c3ccccc3N=C(SCC(=O)Nc3ccc(OC)cc3)N2C1=O (configuration not stated)	inactive: -4.11%
CC(=NNC(=O)c1ccncc1)c1ccc(Cl)cc1Cl	inconclusive: -50.8%
CC(C)Cc1ccc(C(C)C(=O)Nc2cccnc2)cc1 (configuration not stated)	active: -77.9%
CCc1cccc(NC(=O)CN(c2ccc(C)cc2)S(=O)(=O)c2cccs2)c1	inconclusive: -55.5%
O=C(Nc1ccc(F)cc1)Nc1ccc2snnc2c1	active: -75.1%
Cc1ccc(C)c(NC(=O)C(OC(=O)c2ccc(NC(=O)CC#N)cc2)c2ccccc2)c1 (configuration not stated)	inactive: -3.25%
COc1cccc(/C=N/N2CCN(c3ccc(Cl)cc3)CC2)c1OC	active: -69.2%
CCOc1ccc(-c2nc(-c3cccs3)c(CC(=O)O)s2)cc1OC	inactive: -16.3%
O=C(NC1CC(=O)N(c2ccccc2)C1)c1ccco1 (configuration not stated)	inactive: 43.8%
COC(=O)c1sc2nc3c(c(-c4cccs4)c2c1N)CCCC3	inconclusive: -47.7%
Cc1ccc(C)c(NC(=S)N=Nc2c(O)n(C)c3ccc(S(=O)(=O)N4CCOCC4)cc23)c1	inconclusive: -46.2%
c1csc(-c2nnc(Cc3cccc4ccccc34)o2)c1	inconclusive: -45.6%
O=C1c2ccccc2C(=O)N1CC1c2ccccc2CCN1C(=O)C1CCCCC1 (configuration not stated)	inconclusive: -44.9%

Entries above with an aryl methoxy group:
Compound	activity change, negative = inhibition
COc1ccc(C2/C(=C(\O)c3cccc(OC)c3)C(=O)C(=O)N2c2ccccn2)cc1 (configuration not stated)	active: -107%
COc1ccccc1NC(=O)CCn1cnc2onc(-c3ccc(F)cc3)c2c1=O	inactive: -0.311%
COc1ccc(C2CC(c3ccccc3)=NN2C(=O)c2ccc(F)cc2)cc1 (configuration not stated)	inactive: -12.9%
COc1ccc(NC(=O)NC23CC4(C)CC(C)(CC(C)(C4)C2)C3)cc1OC	inconclusive: -49.2%
COc1ccccc1-c1oc2ccccc2c1C#CCO	inactive: -15.6%
COc1ccc(N(CC(=O)Nc2cc(Cl)ccc2C)S(=O)(=O)c2c(C)noc2C)cc1	inconclusive: -53.3%
COc1ccc2c(c1)C(CC(C)=O)N(c1ccc(-c3cccnc3)cc1)C(c1ccsc1)=C2 (configuration not stated)	inactive: -32.2%
COc1ccc(-n2nnnc2SCC(=O)Nc2ccc3c(c2)OCCO3)c(OC)c1	inconclusive: -43%
COc1ccc(CCNC(=O)CC2SC(N)=NC2=O)cc1OC (configuration not stated)	inactive: -12.3%
CCCC(=O)N(Cc1cc(=O)[nH]c2ccccc12)c1ccc(OC)cc1	inactive: 68.6%
CCCCNC(=O)Cn1cnc2sc(C)c(S(=O)(=O)N3CCN(c4ccccc4OC)CC3)c2c1=O	inconclusive: -59%
COc1cc(OC)cc(C2=Cc3ccc(OC)cc3C(CC(C)=O)N2c2ccc(C#CCCO)cc2)c1 (configuration not stated)	inactive: -10.5%
CCCCNC(=O)CC1N=C2c3ccccc3N=C(SCC(=O)Nc3ccc(OC)cc3)N2C1=O (configuration not stated)	inactive: -4.11%
COc1cccc(/C=N/N2CCN(c3ccc(Cl)cc3)CC2)c1OC	active: -69.2%
CCOc1ccc(-c2nc(-c3cccs3)c(CC(=O)O)s2)cc1OC	inactive: -16.3%

More results

Compound	activity change, negative = inhibition
O=C(c1ccccc1)N1CCN(C(=S)NCCc2ccccc2)CC1	inconclusive: -54.5%
Cn1c(/C(C#N)=C(\O)c2ccc(S(=O)(=O)N3CCCCC3)cc2)nc2ccccc21	inconclusive: -52.1%
CC(=O)c1cccc(NC(=S)NCCC2=CCCCC2)c1	inconclusive: -56.7%
O=C(CSc1ccc(Cl)cc1)N1N=CCC1c1ccccc1 (configuration not stated)	inconclusive: -56.1%
O=c1c2cc(C(F)(F)F)ccc2sn1-c1ccccc1	inconclusive: -47.3%
COc1ccc2c(c1)C(=O)N1[C@H]3c4cc(C)ccc4OC[C@@H]3[C@H](c3ccccc3)[C@]1(C)C(=O)N2	inconclusive: -58%
COc1ccc(Cl)cc1C1CC(=O)Nc2cc3c(cc21)OCCO3 (configuration not stated)	active: -92.1%
CC(=O)Nc1ccc(S(=O)(=O)N2CCN(c3cc(C)nc4ccccc34)CC2)cc1	inconclusive: -46.8%
CCNC(=S)NNC(=O)c1ccoc1C	inactive: 42.3%
COc1cccc(NC(=O)C2(S(=O)(=O)c3ccc(Cl)cc3)CC2)c1	inactive: -34.5%
CCOc1ccccc1-n1nnnc1SCC(=O)N(C)C1CCS(=O)(=O)C1 (configuration not stated)	inactive: 29.1%
CCS(=O)(=O)N1Cc2ccccc2CC1C(=O)Nc1nc2ccccc2s1 (configuration not stated)	inconclusive: -41%
Cc1c(NC(=O)COC(=O)CCC(=O)c2ccc(Cl)cc2)c(=O)n(-c2ccccc2)n1C	inconclusive: -48.7%
O=C(CSc1nc2ccccc2c(=O)n1-c1ccc(F)cc1)Nc1ccc(N2CCOCC2)cc1	inconclusive: -53.1%
CN1C[C@@H]2[C@@H]3C(=O)N(C)C(=O)[C@@H]3[C@](C)(C1=O)N2C(=O)c1ccc(C(C)(C)C)cc1	inactive: 3.24%
COc1cccc(/C=C2\SC(=S)N(CCC(=O)N3CCCCC3)C2=O)c1	inconclusive: -57.1%
Cc1ccc(S(=O)(=O)N(C)C)cc1NC(=O)COC(=O)/C=C/c1ccc2ccccc2n1	inconclusive: -55.4%
O=[N+]([O-])c1ccccc1S(=O)(=O)N1CCN(CC2CC=CCC2)CC1 (configuration not stated)	inconclusive: -41.6%
COCCCNC(=S)N1CCC(C(=O)c2ccc(Cl)cc2)CC1	inactive: -17.9%
COc1ccc(-c2nc3ccccc3s2)cc1NC(=O)COc1cccc(C)c1	inactive: 83.7%
COc1ccc(-n2c(=O)c(CCC(=O)N(C)Cc3cccs3)nc3ccccc32)cc1	inconclusive: -53.2%

2 records picked at random from those above, as already listed:
Compound	activity change, negative = inhibition
COc1ccc2c(c1)C(=O)N1[C@H]3c4cc(C)ccc4OC[C@@H]3[C@H](c3ccccc3)[C@]1(C)C(=O)N2	inconclusive: -58%
COCCCNC(=S)N1CCC(C(=O)c2ccc(Cl)cc2)CC1	inactive: -17.9%
